Test results taken from the supplement of paper PMC11006884.
This is a selection; strong and weak results do not stand in their true shares.

By UniProt entry, the sequences of proteins in these tests, tags left out. Where a name states a change or a piece, a line headed by the entry shows the natural chain unless it says otherwise.
UniProt Q9P1U0, whole entry: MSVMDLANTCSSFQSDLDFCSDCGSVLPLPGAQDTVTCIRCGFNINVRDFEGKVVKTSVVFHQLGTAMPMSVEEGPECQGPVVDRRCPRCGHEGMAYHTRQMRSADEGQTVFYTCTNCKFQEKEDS
UniProt Q9P2I0: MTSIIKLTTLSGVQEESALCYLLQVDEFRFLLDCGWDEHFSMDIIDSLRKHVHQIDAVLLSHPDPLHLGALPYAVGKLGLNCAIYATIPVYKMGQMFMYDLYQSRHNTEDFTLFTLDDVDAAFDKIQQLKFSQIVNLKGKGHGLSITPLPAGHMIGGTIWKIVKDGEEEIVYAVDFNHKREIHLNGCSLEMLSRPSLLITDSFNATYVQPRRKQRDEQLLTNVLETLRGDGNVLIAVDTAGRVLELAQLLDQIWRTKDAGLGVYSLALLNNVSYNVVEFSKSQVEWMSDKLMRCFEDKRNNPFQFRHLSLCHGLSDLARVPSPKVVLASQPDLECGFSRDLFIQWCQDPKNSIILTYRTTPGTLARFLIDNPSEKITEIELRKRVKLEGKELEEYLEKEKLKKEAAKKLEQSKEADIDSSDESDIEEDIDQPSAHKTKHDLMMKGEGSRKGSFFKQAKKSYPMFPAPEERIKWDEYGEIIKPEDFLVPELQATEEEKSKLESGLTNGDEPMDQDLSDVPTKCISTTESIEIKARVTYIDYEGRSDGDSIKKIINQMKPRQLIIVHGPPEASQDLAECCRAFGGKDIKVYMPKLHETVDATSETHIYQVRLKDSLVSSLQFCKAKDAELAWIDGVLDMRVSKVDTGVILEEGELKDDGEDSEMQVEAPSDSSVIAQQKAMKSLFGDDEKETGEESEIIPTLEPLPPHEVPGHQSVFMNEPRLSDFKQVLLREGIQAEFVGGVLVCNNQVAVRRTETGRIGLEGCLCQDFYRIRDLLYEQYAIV
UniProt Q9UBB4: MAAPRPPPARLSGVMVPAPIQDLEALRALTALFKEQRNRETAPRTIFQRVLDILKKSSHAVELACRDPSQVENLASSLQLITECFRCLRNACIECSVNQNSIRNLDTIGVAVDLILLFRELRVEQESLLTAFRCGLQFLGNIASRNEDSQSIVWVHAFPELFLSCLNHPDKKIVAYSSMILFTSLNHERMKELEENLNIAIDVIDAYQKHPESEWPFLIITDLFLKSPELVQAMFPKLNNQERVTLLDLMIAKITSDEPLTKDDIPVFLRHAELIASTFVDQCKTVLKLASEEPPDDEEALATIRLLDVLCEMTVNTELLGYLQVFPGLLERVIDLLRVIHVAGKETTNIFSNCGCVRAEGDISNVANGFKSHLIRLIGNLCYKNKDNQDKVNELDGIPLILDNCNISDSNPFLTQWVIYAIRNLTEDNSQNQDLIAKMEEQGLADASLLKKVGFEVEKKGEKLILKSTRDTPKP
UniProt Q9NZM3: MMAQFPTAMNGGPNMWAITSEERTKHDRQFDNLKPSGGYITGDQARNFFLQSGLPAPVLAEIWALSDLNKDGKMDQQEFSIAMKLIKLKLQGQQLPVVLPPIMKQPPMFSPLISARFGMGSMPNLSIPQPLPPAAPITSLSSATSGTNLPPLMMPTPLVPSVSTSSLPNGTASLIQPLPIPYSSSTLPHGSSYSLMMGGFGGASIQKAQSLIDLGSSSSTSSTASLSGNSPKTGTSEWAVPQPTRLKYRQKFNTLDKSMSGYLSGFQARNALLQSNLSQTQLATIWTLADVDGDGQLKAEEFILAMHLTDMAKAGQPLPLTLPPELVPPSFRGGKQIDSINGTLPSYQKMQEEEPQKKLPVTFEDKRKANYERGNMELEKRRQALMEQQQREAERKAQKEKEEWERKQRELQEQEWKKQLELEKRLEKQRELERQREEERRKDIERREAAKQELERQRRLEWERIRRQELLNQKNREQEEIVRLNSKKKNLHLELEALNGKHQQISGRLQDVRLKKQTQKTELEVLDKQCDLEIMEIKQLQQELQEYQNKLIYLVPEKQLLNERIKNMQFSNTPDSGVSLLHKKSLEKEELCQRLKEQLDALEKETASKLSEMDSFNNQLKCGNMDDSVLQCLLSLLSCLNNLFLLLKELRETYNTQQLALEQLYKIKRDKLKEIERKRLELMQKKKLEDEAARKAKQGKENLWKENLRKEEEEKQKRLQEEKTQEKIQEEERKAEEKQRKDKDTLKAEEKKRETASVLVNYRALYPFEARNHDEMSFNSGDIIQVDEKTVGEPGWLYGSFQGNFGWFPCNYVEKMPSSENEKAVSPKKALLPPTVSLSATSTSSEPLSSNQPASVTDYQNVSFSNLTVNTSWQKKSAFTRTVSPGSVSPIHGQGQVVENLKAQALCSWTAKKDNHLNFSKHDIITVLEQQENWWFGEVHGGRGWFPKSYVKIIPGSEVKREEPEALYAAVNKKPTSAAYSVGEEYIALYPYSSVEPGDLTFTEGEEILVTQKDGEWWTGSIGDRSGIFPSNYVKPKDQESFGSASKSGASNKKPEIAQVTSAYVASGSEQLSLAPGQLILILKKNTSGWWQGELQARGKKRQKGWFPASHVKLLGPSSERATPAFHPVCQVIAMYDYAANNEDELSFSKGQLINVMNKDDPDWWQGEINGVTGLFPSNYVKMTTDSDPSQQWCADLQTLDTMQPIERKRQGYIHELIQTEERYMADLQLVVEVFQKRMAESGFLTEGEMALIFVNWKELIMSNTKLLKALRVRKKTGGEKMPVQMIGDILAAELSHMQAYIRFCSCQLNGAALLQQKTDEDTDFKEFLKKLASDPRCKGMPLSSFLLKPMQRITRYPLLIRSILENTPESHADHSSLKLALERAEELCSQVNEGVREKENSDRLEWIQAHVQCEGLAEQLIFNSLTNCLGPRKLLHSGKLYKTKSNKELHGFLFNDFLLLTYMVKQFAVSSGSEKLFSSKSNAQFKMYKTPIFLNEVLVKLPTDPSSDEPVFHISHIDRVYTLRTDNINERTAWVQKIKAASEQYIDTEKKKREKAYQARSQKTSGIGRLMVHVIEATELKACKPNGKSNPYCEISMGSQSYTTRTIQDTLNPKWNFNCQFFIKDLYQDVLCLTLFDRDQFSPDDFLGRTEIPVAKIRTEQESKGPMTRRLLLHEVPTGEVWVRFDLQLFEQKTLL
UniProt Q9P0U4, whole entry: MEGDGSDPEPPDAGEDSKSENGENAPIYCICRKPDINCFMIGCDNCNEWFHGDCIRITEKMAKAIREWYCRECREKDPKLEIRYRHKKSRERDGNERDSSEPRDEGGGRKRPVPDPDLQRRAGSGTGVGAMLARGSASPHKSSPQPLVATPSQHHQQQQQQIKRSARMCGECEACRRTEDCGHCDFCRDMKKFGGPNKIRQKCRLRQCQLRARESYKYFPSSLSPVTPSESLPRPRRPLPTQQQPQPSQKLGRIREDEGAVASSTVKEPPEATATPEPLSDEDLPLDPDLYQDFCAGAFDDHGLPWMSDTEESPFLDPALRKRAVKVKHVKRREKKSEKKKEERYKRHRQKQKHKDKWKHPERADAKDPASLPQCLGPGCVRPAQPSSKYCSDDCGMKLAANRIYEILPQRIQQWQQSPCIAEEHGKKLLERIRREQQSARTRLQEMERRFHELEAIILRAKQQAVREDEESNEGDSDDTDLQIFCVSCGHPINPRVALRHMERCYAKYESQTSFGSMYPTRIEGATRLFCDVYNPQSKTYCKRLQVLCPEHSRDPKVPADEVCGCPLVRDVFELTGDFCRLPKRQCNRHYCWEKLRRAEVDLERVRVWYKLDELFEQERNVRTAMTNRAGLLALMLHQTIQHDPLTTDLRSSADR
UniProt Q9NVU0: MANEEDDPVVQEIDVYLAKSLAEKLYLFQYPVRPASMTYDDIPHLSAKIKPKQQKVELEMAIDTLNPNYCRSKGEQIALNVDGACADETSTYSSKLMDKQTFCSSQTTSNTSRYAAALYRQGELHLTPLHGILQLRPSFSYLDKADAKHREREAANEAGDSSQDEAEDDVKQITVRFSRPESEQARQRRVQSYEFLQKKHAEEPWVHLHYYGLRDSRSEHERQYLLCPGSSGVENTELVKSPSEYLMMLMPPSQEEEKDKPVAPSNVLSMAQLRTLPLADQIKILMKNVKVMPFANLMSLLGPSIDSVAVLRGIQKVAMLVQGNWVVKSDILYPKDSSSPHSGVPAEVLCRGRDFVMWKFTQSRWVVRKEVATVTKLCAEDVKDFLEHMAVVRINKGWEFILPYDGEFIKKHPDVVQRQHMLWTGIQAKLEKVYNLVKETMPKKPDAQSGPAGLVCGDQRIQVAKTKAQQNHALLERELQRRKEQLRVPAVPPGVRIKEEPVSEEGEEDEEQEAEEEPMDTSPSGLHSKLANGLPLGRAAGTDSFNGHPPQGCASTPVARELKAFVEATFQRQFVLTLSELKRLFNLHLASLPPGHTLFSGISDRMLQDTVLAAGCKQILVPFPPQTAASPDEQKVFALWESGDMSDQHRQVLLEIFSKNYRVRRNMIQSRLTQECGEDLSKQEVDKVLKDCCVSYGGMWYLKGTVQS
UniProt Q9NZJ9: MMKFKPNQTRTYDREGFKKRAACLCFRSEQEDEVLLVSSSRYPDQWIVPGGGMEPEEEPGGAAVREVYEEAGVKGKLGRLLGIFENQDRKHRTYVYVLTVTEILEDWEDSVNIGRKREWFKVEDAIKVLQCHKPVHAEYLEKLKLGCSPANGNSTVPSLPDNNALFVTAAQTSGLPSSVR
UniProt Q9NUQ6: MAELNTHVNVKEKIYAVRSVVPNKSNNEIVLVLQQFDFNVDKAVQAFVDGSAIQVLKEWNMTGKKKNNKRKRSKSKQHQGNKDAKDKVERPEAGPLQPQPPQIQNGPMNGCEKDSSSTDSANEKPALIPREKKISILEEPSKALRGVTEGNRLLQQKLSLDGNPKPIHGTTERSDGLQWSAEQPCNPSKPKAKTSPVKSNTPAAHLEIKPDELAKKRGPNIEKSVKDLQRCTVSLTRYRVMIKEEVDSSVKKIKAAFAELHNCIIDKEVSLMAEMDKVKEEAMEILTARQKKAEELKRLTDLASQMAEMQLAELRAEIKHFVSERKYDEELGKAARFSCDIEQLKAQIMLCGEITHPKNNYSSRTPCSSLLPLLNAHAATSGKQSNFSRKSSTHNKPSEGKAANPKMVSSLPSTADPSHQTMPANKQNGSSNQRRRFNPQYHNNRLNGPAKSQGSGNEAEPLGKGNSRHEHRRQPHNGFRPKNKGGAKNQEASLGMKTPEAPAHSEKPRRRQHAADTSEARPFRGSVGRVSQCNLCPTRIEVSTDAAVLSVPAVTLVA
UniProt Q9UGI8: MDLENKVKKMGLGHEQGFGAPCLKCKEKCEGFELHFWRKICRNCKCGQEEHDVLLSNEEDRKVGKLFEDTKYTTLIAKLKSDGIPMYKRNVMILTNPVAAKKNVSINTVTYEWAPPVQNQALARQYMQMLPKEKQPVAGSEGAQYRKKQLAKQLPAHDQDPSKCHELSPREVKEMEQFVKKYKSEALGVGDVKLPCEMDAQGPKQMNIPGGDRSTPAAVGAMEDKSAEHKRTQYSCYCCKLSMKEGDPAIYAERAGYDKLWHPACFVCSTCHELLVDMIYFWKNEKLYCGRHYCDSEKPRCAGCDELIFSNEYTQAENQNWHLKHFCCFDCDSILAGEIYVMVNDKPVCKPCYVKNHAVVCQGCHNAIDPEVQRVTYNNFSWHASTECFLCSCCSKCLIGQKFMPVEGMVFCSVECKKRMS
UniProt Q9NVH0: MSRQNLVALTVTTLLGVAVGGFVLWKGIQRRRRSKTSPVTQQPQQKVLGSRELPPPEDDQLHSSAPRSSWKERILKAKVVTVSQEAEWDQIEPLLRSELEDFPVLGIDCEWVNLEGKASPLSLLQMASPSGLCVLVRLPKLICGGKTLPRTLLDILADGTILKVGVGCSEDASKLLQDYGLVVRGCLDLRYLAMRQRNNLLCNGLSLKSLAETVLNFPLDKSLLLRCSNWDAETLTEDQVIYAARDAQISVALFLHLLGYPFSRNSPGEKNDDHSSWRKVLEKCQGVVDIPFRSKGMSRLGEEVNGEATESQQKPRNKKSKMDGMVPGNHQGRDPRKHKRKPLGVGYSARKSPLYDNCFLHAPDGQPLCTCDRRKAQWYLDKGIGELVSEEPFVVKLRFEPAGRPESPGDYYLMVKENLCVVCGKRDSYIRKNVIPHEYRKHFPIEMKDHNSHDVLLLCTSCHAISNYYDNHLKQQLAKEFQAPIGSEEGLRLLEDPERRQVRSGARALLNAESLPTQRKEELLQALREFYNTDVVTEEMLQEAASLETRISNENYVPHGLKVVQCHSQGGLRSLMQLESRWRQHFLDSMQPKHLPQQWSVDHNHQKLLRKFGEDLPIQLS
UniProt Q9UET6: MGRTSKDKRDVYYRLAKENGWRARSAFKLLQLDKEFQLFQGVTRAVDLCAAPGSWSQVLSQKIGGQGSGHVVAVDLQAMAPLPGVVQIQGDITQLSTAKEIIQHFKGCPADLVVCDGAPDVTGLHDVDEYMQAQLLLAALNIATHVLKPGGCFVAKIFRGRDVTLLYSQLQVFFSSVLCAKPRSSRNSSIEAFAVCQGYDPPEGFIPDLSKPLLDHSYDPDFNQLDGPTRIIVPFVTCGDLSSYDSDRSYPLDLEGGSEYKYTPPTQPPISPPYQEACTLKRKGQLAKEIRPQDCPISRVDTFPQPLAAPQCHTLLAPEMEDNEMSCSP

Compound: COC(=O)C#Cc1ccccc1 [methyl 3-phenylpropiolate]
Assay: log2 ratio of iodoacetamide-alkyne labeling of the cysteine site, DMSO over compound (competition); higher = stronger covalent engagement of the cysteine by the compound, active = 1 or more
Conditions: 500 µM; treatment time 1 h; system: HEK293T cell lysate
Method in brief: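 The log2 competition ratio per cysteine is defined as mean reporter intensity in control channels over mean reporter intensity in compound channels. Lysate from HEK293T cells (2 mg/mL) received electrophile (500 µM) or vehicle for 1 h at ambient temperature, followed by iodoacetamide alkyne for 1 h. Samples were clicked to sCIP-TMT reagents, pooled, trypsin-digested overnight at 37 °C, streptavidin-enriched, acid-eluted and run on Orbitrap Eclipse LC-MS/MS with FAIMS, with quantification in FragPipe. Three replicates with duplicate channels were used, and any cysteine quantified in only one replicate was excluded.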

Target | log2 ratio of iodoacetamide-alkyne labeling
UBA2 C413 (UniProt Q9UBT2) | inactive: -0.162
GMIP C895 (UniProt Q9P107) | inactive: 0.389
UniProt Q9P032_C87 | inactive: 0.341
DPP3 C176 (UniProt Q9NY33) | inactive: 0.182
ZNRD1 C78 (UniProt Q9P1U0) | inactive: 0.389
SLTM C568 (UniProt Q9NWH9) | inactive: 0.222
COPG2 C296 (UniProt Q9UBF2) | inactive: 0.0508
CPSF2 C763 (UniProt Q9P2I0) | inactive: -0.0874
DAXX C338 (UniProt Q9UER7) | inactive: 0.306
ATXN10 C165 (UniProt Q9UBB4) | inactive: 0.194
ITSN2 C1194 (UniProt Q9NZM3) | inactive: -0.296
CXXC1 C531 (UniProt Q9P0U4) | inactive: 0.253
STK39 C525 (UniProt Q9UEW8) | inactive: 0.296
COPG2 C446 (UniProt Q9UBF2) | inactive: 0.463
ATXN10 C283 (UniProt Q9UBB4) | inactive: 0.167
MPP6 C103 (UniProt Q9NZW5) | inactive: 0.0103
LIMD1 C222 (UniProt Q9UGP4) | inactive: 0.4
MTPAP C242 (UniProt Q9NVV4) | inactive: 0.146
MKRN1 C179 (UniProt Q9UHC7) | inactive: 0.373

2 records drawn at random from the list so far, as already listed:
Target | log2 ratio of iodoacetamide-alkyne labeling
SLTM C568 (UniProt Q9NWH9) | inactive: 0.222
ATXN10 C165 (UniProt Q9UBB4) | inactive: 0.194

The list continues:

Target | log2 ratio of iodoacetamide-alkyne labeling
UniProt Q9UBD5_C621 | inactive: 0.166
POLR3E C70 (UniProt Q9NVU0) | inactive: 0.596
UniProt Q9P2P1_C1222 | inactive: 0.312
ASF1B C172 (UniProt Q9NVP2) | active: 1.22
RRBP1 C1128 (UniProt Q9P2E9) | inactive: 0.167
SEC63 C366 (UniProt Q9UGP8) | inactive: -0.163
NUDT4 C147 (UniProt Q9NZJ9) | inactive: 0.326
UTP6 C309 (UniProt Q9NYH9) | inactive: 0.0486
UniProt Q9P1F3_C39 | inactive: 0.0685
SPATS2L C367 (UniProt Q9NUQ6) | inactive: 0.00701
GNL3L C213 (UniProt Q9NVN8) | inactive: 0.538
TES C412 (UniProt Q9UGI8) | inactive: 0.0269
LRWD1 C88 (UniProt Q9UFC0) | inactive: 0.122
AASS C87 (UniProt Q9UDR5) | inactive: 0.102
UniProt Q9NVH0_C284 | inactive: 0.123
COPS7A C110 (UniProt Q9UBW8) | inactive: 0.0698
FTSJ1 C49 (UniProt Q9UET6) | inactive: 0.248
LARS C554 (UniProt Q9P2J5) | active: 1.74
